The supplement of paper PMC10849652
This is one part of the list.

By UniProt entry, the sequences of proteins in these tests, tags left out. Where a name states a change or a piece, a line headed by the entry shows the natural chain unless it says otherwise.
UniProt P20839, whole entry, looked up: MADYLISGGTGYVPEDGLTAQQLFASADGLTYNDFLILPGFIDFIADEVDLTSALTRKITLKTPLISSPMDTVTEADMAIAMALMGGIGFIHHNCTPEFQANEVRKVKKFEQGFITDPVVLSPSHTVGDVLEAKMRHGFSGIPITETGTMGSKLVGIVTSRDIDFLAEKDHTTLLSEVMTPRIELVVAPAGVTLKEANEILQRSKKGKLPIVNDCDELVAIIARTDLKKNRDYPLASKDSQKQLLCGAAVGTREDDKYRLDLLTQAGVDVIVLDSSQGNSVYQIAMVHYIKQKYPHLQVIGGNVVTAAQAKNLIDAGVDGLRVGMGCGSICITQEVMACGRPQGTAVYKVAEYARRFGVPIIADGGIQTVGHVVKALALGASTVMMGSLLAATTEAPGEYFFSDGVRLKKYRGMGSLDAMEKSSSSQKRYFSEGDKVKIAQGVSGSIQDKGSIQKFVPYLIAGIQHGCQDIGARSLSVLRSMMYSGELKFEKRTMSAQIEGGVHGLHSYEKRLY
UniProt Q13907: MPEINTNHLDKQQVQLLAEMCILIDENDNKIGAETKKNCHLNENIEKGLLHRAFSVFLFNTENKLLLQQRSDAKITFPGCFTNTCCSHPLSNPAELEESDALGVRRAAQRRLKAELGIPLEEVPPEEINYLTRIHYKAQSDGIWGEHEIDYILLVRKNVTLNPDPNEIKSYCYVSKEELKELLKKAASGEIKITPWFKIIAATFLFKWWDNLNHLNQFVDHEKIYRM
UniProt Q9Y547: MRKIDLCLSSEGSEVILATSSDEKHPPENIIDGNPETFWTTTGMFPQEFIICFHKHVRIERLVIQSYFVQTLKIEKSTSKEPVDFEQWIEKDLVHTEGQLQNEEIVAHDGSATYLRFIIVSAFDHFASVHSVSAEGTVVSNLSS
UniProt P80217: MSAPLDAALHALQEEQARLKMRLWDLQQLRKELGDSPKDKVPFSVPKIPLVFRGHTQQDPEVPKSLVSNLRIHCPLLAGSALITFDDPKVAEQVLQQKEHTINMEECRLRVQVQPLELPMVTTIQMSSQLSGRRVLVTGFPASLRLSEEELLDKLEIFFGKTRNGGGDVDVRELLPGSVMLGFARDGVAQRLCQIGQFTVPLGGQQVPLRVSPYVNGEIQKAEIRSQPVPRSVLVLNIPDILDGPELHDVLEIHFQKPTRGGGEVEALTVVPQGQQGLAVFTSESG
UniProt Q16891: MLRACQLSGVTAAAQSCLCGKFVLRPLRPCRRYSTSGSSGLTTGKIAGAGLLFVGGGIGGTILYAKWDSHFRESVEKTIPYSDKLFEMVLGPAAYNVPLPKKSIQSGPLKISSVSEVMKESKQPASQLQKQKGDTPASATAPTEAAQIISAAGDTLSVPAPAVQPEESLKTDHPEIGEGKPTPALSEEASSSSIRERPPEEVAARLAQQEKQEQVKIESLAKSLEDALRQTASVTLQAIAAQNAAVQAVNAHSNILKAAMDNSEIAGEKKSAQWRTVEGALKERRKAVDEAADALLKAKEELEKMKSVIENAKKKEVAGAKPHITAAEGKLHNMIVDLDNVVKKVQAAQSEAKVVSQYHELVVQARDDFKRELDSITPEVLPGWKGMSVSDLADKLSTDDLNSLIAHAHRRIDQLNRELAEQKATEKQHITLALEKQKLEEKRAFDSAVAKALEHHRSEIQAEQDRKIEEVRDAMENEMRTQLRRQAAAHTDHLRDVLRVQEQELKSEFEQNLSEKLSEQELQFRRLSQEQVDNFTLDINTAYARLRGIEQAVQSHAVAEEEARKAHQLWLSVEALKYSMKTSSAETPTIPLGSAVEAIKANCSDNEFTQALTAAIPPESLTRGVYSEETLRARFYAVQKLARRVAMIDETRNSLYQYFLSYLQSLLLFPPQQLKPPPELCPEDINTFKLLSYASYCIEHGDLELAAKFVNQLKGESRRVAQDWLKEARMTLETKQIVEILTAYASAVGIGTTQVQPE
UniProt O43464: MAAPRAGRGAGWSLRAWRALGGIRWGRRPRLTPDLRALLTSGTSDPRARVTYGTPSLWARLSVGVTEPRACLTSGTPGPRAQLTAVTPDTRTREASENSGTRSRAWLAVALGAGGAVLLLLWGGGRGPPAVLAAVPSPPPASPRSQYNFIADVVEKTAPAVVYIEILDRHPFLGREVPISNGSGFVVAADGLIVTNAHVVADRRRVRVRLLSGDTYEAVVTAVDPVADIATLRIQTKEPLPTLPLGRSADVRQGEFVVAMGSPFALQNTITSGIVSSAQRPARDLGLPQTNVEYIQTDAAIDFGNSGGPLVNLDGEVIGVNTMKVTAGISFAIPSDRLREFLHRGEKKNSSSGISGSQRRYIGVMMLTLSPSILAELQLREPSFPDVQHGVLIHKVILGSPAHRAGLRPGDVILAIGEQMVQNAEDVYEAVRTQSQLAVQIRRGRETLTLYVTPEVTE
UniProt Q8IY31, whole entry, looked up: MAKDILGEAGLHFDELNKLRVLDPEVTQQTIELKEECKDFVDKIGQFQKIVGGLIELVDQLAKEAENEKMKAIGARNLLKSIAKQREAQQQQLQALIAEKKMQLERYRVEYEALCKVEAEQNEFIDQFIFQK
UniProt Q13422: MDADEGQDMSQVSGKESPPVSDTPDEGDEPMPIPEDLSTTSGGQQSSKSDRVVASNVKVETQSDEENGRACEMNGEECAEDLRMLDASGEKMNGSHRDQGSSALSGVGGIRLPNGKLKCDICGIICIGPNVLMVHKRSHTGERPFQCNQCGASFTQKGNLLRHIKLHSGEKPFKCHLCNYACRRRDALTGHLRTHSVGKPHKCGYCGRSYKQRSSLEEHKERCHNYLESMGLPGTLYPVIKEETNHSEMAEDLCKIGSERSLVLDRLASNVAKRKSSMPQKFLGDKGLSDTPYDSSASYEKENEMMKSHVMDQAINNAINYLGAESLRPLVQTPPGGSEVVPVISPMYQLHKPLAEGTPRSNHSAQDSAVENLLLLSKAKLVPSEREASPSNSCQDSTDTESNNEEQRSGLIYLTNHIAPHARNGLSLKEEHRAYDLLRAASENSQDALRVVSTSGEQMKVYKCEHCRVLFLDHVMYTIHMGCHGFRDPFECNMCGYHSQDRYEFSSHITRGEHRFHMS
UniProt Q70UQ0: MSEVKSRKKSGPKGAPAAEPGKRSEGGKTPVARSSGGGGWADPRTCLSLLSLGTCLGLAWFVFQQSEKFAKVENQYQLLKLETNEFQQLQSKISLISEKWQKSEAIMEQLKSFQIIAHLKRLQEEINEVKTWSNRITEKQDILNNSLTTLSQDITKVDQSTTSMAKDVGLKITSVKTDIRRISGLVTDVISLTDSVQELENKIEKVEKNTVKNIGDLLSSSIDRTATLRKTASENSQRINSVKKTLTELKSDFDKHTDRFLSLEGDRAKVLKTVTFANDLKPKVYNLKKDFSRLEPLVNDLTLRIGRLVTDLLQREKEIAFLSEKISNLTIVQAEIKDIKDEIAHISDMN
UniProt C9J406: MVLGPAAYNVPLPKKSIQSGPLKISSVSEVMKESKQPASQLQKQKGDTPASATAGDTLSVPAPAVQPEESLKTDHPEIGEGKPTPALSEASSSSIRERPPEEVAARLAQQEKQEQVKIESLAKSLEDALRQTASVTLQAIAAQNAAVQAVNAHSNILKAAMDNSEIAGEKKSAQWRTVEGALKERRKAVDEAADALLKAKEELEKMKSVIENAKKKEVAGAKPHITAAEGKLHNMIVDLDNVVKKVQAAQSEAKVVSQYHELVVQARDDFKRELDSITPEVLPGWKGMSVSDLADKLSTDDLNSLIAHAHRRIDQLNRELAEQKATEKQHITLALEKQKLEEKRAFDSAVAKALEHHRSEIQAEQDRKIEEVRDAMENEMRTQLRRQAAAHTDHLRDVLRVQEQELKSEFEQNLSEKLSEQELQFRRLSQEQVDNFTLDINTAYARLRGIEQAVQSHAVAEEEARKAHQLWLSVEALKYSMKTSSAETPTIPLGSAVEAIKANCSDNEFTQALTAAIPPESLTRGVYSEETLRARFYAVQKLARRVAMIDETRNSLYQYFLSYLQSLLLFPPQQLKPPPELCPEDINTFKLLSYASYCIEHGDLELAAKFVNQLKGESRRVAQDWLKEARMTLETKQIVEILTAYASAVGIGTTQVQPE
UniProt Q9NZL4: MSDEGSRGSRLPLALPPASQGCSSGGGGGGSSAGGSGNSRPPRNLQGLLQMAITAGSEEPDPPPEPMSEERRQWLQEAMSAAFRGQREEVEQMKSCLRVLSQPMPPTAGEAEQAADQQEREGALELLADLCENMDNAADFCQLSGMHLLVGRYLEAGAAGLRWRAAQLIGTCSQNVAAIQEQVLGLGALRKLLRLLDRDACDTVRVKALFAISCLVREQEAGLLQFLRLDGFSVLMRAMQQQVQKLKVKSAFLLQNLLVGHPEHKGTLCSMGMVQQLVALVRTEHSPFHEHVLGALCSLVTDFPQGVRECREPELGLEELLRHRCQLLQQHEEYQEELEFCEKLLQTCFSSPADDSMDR
UniProt Q9Y6M1: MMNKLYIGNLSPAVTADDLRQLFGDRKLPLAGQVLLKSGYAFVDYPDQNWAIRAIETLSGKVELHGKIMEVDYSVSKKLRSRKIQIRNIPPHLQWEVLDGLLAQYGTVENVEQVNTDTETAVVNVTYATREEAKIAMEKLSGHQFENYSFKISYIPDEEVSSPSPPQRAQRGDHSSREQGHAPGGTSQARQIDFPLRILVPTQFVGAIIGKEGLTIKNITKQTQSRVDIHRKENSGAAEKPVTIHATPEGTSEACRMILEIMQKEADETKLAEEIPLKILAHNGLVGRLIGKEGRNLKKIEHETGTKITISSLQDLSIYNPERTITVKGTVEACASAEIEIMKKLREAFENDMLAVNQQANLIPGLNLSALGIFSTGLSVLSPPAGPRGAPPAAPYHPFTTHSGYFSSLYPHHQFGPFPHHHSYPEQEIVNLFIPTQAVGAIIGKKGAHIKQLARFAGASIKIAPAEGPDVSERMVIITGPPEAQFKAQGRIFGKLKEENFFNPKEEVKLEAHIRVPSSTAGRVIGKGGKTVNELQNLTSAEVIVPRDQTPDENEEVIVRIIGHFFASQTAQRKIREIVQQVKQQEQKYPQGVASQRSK
UniProt Q9NVR2, whole entry, looked up: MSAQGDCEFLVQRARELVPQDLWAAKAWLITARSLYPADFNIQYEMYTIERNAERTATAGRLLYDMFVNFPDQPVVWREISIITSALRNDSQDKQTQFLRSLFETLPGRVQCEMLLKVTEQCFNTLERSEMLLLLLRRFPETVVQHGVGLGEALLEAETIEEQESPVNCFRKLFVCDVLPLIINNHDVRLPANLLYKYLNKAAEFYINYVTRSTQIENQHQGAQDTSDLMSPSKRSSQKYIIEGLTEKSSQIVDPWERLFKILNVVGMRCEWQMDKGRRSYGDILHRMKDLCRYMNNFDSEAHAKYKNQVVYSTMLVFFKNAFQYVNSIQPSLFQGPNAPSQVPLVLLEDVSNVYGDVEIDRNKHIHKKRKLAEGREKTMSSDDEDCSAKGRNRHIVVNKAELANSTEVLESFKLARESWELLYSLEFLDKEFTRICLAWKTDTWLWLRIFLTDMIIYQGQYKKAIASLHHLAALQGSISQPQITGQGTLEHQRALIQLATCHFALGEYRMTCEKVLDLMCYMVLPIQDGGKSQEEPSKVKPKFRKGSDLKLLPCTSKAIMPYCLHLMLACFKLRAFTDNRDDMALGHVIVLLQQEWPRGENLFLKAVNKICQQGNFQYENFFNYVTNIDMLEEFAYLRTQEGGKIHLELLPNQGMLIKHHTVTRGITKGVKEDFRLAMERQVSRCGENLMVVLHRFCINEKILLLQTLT
UniProt P41134: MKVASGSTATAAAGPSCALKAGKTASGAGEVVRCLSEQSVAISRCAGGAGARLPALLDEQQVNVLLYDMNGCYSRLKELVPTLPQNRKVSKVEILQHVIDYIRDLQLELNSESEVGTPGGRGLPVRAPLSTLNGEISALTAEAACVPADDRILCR
UniProt Q9NXR8, whole entry, looked up: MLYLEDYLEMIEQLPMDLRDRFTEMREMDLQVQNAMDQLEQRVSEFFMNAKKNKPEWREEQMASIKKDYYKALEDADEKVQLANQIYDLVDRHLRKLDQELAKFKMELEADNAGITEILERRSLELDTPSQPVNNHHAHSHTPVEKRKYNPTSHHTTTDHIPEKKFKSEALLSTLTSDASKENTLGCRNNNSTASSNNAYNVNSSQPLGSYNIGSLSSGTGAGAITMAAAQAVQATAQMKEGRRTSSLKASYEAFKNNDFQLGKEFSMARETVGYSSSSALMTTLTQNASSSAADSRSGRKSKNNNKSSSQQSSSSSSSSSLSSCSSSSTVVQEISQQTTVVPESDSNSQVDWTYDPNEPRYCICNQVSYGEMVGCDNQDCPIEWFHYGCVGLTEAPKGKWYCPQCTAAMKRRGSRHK
UniProt Q8NBZ0, whole entry, looked up: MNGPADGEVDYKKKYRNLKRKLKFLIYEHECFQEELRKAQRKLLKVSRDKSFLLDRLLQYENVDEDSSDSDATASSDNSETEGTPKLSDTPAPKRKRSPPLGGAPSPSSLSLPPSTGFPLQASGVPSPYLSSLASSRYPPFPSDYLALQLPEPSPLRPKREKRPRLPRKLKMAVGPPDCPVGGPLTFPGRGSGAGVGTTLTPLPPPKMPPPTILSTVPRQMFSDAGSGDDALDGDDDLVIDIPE

Experiments:
Test in all cases: log2 fold change, soluble protein after heating vs DMSO (PISA); higher = thermal stabilisation; K562 lysate, 10 uM; active = over 0.2 and 3.5 SD of the protein, either way, in both replicates (recomputed)
nilotinib = compound: Cc1cn(-c2cc(NC(=O)c3ccc(C)c(Nc4nccc(-c5cccnc5)n4)c3)cc(C(F)(F)F)c2)cn1 [nilotinib]
Procedure, shortened: (§1)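 Thermal stability, expressed as log-two fold change relative to solvent controls, is given from duplicates. Crude K562 extract in PBS pH 7.4 with 1 mM MgCl2, at 1 mg/mL protein, was treated with 10 μM compound for 30 min and heated in aliquots for 3 min across 48°C-58°C. After pooling, adjustment to 0.5% NP-40 at 4°C and centrifugation at 21,000xg for 90 min, supernatant protein was measured by TMTpro 16plex LC-MS/MS with channel sums equalised.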

[1] = compound: Cc1nc(Nc2n[nH]c3c2CN(C(=O)N[C@H](CN(C)C)c2ccccc2)C3(C)C)c2sccc2n1
Procedure, shortened: as §1

dasatinib = compound: Cc1nc(Nc2ncc(C(=O)Nc3c(C)cccc3Cl)s2)cc(N2CCN(CCO)CC2)n1 [dasatinib]
Procedure, shortened: as §1

[2] = compound: Cc1ncc(-c2ccnc(Nc3ccc(S(C)(=O)=O)cc3)n2)n1C(C)C
Procedure, shortened: as §1

[3] = compound: Cn1cc(-c2ccc3c(c2)CCN3C(=O)Cc2cccc(C(F)(F)F)c2)c2c(N)ncnc21
Procedure, shortened: as §1

quisinostat = compound: Cn1cc(CNCC2CCN(c3ncc(C(=O)NO)cn3)CC2)c2ccccc21 [quisinostat]
Procedure, shortened: as §1

tipifarnib = compound: Cn1cncc1[C@@](N)(c1ccc(Cl)cc1)c1ccc2c(c1)c(-c1cccc(Cl)c1)cc(=O)n2C [tipifarnib]
Procedure, shortened: as §1

[4] = compound: NC(=O)Nc1cc(-c2cccc(F)c2)sc1C(=O)N[C@H]1CCCNC1
Procedure, shortened: as §1

[5] = compound: NC(=O)c1cnc(N[C@@H]2CCCC[C@@H]2N)nc1Nc1cccc(-n2nccn2)c1
Procedure, shortened: as §1

[6] = compound: NC1(c2ccc(-c3nc4ccn5c(=O)[nH]nc5c4cc3-c3ccccc3)cc2)CCC1
Procedure, shortened: as §1

[7] = compound: NCC(=O)Nc1ccc(-n2nc(C(F)(F)F)cc2-c2ccc3c(ccc4ccccc43)c2)cc1
Procedure, shortened: as §1

vorinostat = compound: O=C(CCCCCCC(=O)Nc1ccccc1)NO [vorinostat]
Procedure, shortened: as §1

silmitasertib = compound: O=C(O)c1ccc2c(c1)nc(Nc1cccc(Cl)c1)c1ccncc12 [silmitasertib]
Procedure, shortened: as §1

[8] = compound: O=C1NC(=O)C(c2cnc3ccccn23)=C1c1cn2c3c(cc(F)cc13)CN(C(=O)N1CCCCC1)CC2
Procedure, shortened: as §1

entospletinib = compound: c1cn2cc(-c3ccc4cn[nH]c4c3)nc(Nc3ccc(N4CCOCC4)cc3)c2n1 [entospletinib]
Procedure, shortened: as §1

| Target | log2 fold change (nilotinib) | log2 fold change [1] | log2 fold change (dasatinib) | log2 fold change [2] | log2 fold change [3] | log2 fold change (quisinostat) | log2 fold change (tipifarnib) | log2 fold change [4] | log2 fold change [5] | log2 fold change [6] | log2 fold change [7] | log2 fold change (vorinostat) | log2 fold change (silmitasertib) | log2 fold change [8] | log2 fold change (entospletinib) |
| --- | --- | --- | --- | --- | --- | --- | --- | --- | --- | --- | --- | --- | --- | --- | --- |
| ICA1 (UniProt Q05084) | inactive: 0.018 | inactive: 0.04 | inactive: 0.025 | inactive: -0.015 | inactive: -0.023 | inactive: -0.053 | inactive: 0.021 | inactive: -0.034 | inactive: -0.017 | inactive: 0.016 | inactive: -0.012 | inactive: -0.17 | inactive: 0.008 | inactive: 0.016 | inactive: -0.007 |
| IMPDH1 isoform 6 (UniProt P20839) | inactive: 0.008 | inactive: -0.034 | inactive: -0.033 | inactive: 0.015 | inactive: -0.006 | inactive: -0.121 | inactive: -0.017 | inactive: -0.007 | inactive: -0.008 | inactive: -0.012 | inactive: 0.029 | active: -0.897 | inactive: -0.003 | inactive: 0.004 | inactive: 0.023 |
| IDI1 (UniProt Q13907) | inactive: 0.034 | inactive: 0.048 | inactive: 0.011 | inactive: 0.055 | inactive: -0.089 | inactive: 0.047 | inactive: -0.002 | inactive: -0.045 | inactive: 0.028 | inactive: -0.002 | inactive: -0.008 | inactive: 0.101 | inactive: -0.001 | inactive: -0.004 | inactive: -0.006 |
| HSPB11 (UniProt Q9Y547) | inactive: 0.054 | inactive: -0.029 | inactive: 0.018 | inactive: -0.002 | inactive: -0.007 | inactive: -0.021 | inactive: 0.113 | inactive: 0.012 | inactive: -0.023 | inactive: -0.031 | inactive: 0.031 | inactive: 0.146 | inactive: -0.034 | inactive: 0.011 | inactive: 0.002 |
| IFI35 isoform 2 (UniProt P80217) | inactive: -0.025 | inactive: 0.014 | inactive: -0.025 | inactive: -0.026 | inactive: -0.024 | inactive: -0.065 | inactive: -0.003 | inactive: -0.015 | inactive: -0.001 | inactive: -0.025 | inactive: 0.003 | inactive: 0.059 | inactive: -0.023 | inactive: -0.014 | inactive: -0.006 |
| IMMT (UniProt Q16891) | inactive: -0.009 | inactive: 0.016 | inactive: -0.075 | inactive: 0.037 | inactive: 0.01 | inactive: 0.041 | inactive: -0.005 | inactive: -0.007 | inactive: -0.017 | inactive: -0.035 | inactive: -0.005 | inactive: 0.056 | inactive: 0.033 | inactive: 0.016 | inactive: 0.017 |
| HTRA2 (UniProt O43464) | inactive: -0.005 | inactive: 0.015 | inactive: 0.014 | inactive: 0 | inactive: -0.004 | inactive: -0.033 | inactive: 0.009 | inactive: -0.006 | inactive: 0.03 | inactive: 0.005 | inactive: 0.01 | inactive: 0.128 | inactive: -0.032 | inactive: -0.003 | inactive: -0.041 |
| IFT20 isoform 2 (UniProt Q8IY31) | inactive: 0.021 | inactive: -0.009 | inactive: -0.055 | inactive: 0.127 | inactive: -0.052 | inactive: 0.001 | inactive: -0.143 | inactive: 0.013 | inactive: -0.044 | inactive: -0.026 | inactive: 0.083 | inactive: 0.065 | inactive: -0.061 | inactive: 0 | inactive: -0.15 |
| IKZF1 (UniProt Q13422) | inactive: -0.193 | inactive: -0.058 | inactive: 0.019 | inactive: 0.011 | inactive: -0.077 | inactive: 0.026 | inactive: 0.066 | inactive: 0.037 | inactive: 0.029 | inactive: -0.016 | inactive: 0.003 | inactive: -0.004 | inactive: -0.012 | inactive: 0.005 | inactive: 0 |
| IKBIP isoform 4 (UniProt Q70UQ0) | inactive: 0.016 | inactive: 0.024 | inactive: 0.009 | inactive: -0.005 | inactive: 0.01 | inactive: -0.032 | inactive: -0.043 | inactive: 0.007 | inactive: 0.007 | inactive: -0.014 | inactive: 0.014 | inactive: 0.125 | inactive: 0.035 | inactive: -0.03 | inactive: 0.009 |
| IMMT (UniProt C9J406) | inactive: -0.044 | inactive: 0.09 | inactive: 0.045 | inactive: 0.012 | inactive: 0.051 | inactive: 0.022 | inactive: -0.03 | inactive: 0 | inactive: 0.023 | inactive: -0.038 | inactive: -0.084 | inactive: 0.174 | inactive: 0.092 | inactive: -0.002 | inactive: -0.172 |
| HSPBP1 (UniProt Q9NZL4) | inactive: -0.011 | inactive: 0 | inactive: -0.051 | inactive: 0.012 | inactive: -0.015 | inactive: -0.045 | inactive: 0.002 | inactive: 0.017 | inactive: 0.006 | inactive: -0.01 | inactive: 0.013 | inactive: -0.039 | inactive: 0.005 | inactive: -0.002 | inactive: 0.009 |
| IGF2BP2 (UniProt Q9Y6M1) | inactive: -0.051 | inactive: 0.008 | inactive: -0.055 | inactive: -0.008 | inactive: 0.031 | inactive: 0.012 | inactive: 0.028 | inactive: 0.06 | inactive: 0.016 | inactive: 0.019 | inactive: -0.016 | active: -0.239 | inactive: 0.088 | inactive: 0 | inactive: 0.026 |
| INTS10 (UniProt Q9NVR2) | inactive: -0.01 | inactive: -0.025 | inactive: -0.054 | inactive: -0.024 | inactive: 0.109 | inactive: -0.034 | inactive: -0.021 | inactive: 0.011 | inactive: 0.039 | inactive: 0.028 | inactive: 0.027 | active: -0.438 | inactive: 0.047 | inactive: 0.002 | inactive: 0.006 |
| ID1 (UniProt P41134) | inactive: 0.073 | inactive: 0.143 | inactive: 0.008 | inactive: 0.249 | inactive: 0.005 | inactive: -0.005 | inactive: -0.041 | inactive: 0.057 | – | inactive: 0.037 | inactive: -0.124 | inactive: 0.059 | inactive: -0.015 | inactive: -0.039 | – |
| IGF2R (UniProt P11717) | inactive: 0.013 | inactive: -0.003 | inactive: 0.022 | inactive: -0.022 | inactive: 0.012 | inactive: -0.052 | inactive: 0.004 | inactive: 0.002 | inactive: -0.013 | inactive: 0.001 | inactive: -0.006 | inactive: 0.085 | inactive: 0.01 | inactive: 0.006 | inactive: -0.014 |
| ING3 (UniProt Q9NXR8) | inactive: -0.006 | inactive: -0.001 | inactive: 0.014 | inactive: -0.012 | inactive: 0.06 | inactive: 0.028 | inactive: 0.029 | inactive: -0.006 | inactive: 0.042 | inactive: 0.052 | inactive: -0.08 | inactive: -0.21 | inactive: 0.004 | inactive: -0.047 | inactive: -0.031 |
| IFT122 isoform 5 (UniProt Q9HBG6) | inactive: -0.001 | inactive: 0.194 | inactive: -0.226 | inactive: 0.127 | inactive: -0.011 | inactive: 0.17 | inactive: 0.143 | inactive: -0.343 | – | – | inactive: -0.191 | – | – | inactive: -0.269 | – |
| IMPDH2 (UniProt H0Y4R1) | inactive: 0.106 | inactive: -0.012 | inactive: 0.004 | inactive: 0.014 | inactive: -0.066 | inactive: -0.153 | inactive: -0.09 | inactive: 0.02 | inactive: -0.01 | – | inactive: -0.044 | – | – | inactive: 0.05 | inactive: -0.042 |
| INPPL1 (UniProt O15357) | inactive: -0.007 | inactive: -0.001 | inactive: -0.031 | inactive: -0.02 | inactive: 0.035 | inactive: 0 | inactive: -0.026 | inactive: 0.032 | inactive: 0.028 | inactive: 0.003 | inactive: 0.025 | active: -0.528 | inactive: 0.057 | inactive: 0.017 | inactive: -0.015 |
| INO80E (UniProt Q8NBZ0) | inactive: 0.04 | inactive: -0.156 | inactive: -0.269 | inactive: -0.131 | inactive: -0.064 | inactive: -0.164 | inactive: -0.043 | inactive: 0.152 | inactive: 0.175 | inactive: -0.153 | – | inactive: 0.017 | inactive: -0.098 | inactive: 0.091 | inactive: -0.17 |

Pulled one by one from above (two):

| Target | log2 fold change (nilotinib) | log2 fold change [1] | log2 fold change (dasatinib) | log2 fold change [2] | log2 fold change [3] | log2 fold change (quisinostat) | log2 fold change (tipifarnib) | log2 fold change [4] | log2 fold change [5] | log2 fold change [6] | log2 fold change [7] | log2 fold change (vorinostat) | log2 fold change (silmitasertib) | log2 fold change [8] | log2 fold change (entospletinib) |
| --- | --- | --- | --- | --- | --- | --- | --- | --- | --- | --- | --- | --- | --- | --- | --- |
| ID1 (UniProt P41134) | inactive: 0.073 | inactive: 0.143 | inactive: 0.008 | inactive: 0.249 | inactive: 0.005 | inactive: -0.005 | inactive: -0.041 | inactive: 0.057 | – | inactive: 0.037 | inactive: -0.124 | inactive: 0.059 | inactive: -0.015 | inactive: -0.039 | – |
| IKZF1 (UniProt Q13422) | inactive: -0.193 | inactive: -0.058 | inactive: 0.019 | inactive: 0.011 | inactive: -0.077 | inactive: 0.026 | inactive: 0.066 | inactive: 0.037 | inactive: 0.029 | inactive: -0.016 | inactive: 0.003 | inactive: -0.004 | inactive: -0.012 | inactive: 0.005 | inactive: 0 |
